Several values for one entry are separate records, joined by “and”; a condition that tells them apart may be missing. Identical values can stand only once. The campaign covered roughly 350,000 compounds. About 6,000 (1.7%) were called active. The shares of active, inactive and inconclusive entries below differ from those in the screen. No stated cut-off is given here; in the data, active means CPE inhibition above about 20% (passing the limit was not always enough); inconclusive means no clear call, values can overlap the other calls; tested in BHK-21 cells.
Assay: protection of cells from dengue 2 killing – plate reader, single concentration, primary screen (AID 651640);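 further: 0% = median of neutral control wells and 100% = median of positive control wells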
Conditions: DENV2-infected cells, cytopathic effect rescue, at 9.99 µM, active compounds read high
In the case of `O=C(Nc1ccnn1C1CCN(Cc2ccccc2F)CC1)C1CCCC1`, the CPE inhibition is reported as inconclusive: 51.6%.
In the case of `C[C@H]1CN([C@@H](C)CO)C(=O)c2cc(NC(=O)C3CCCCC3)ccc2O[C@H]1CN(C)Cc1ccc(-c2ccccc2)cc1`, the CPE inhibition is reported as inactive: 4.67% and inactive: -3.1%.
For `C[C@@H]1CN([C@H](C)CO)C(=O)c2cc(NC(=O)c3ccncc3)ccc2O[C@@H](C)CCCCO[C@H]1CN(C)C`, the CPE inhibition was active: 84.6%.
For `CCOC(=O)Cn1c(=N)n(CCOc2ccc(Br)cc2)c2ccccc21`, the CPE inhibition was inactive: 3.28%.
In the case of `COc1ccc(S(=O)(=O)N2CCOCC2)cc1C(=O)NCC(c1ccccc1)c1ccccc1`, the CPE inhibition is reported as inconclusive: 32.1%.
In the case of `OC[C@@H]1CN(Cc2ccc(Cl)cc2)C[C@H](n2cnc3c(Nc4ccccc4)ncnc32)O1`, the CPE inhibition is reported as inconclusive: 45.2%.
With `CC(=O)c1cccc(NC(=O)CSc2ccc(-c3ccc4c(c3)OCO4)nn2)c1` the CPE inhibition was inactive: 0.949%.
With `O=C(Cn1cc([N+](=O)[O-])ccc1=O)N1CCc2ccccc2C1` the CPE inhibition was inconclusive: 44.3%.
With `O=C(NCCC1CCCCN1S(=O)(=O)c1ccc(F)cc1)C(=O)NCc1cccnc1` (stereo not given) the CPE inhibition was inactive: -2.3%.
With `O=[N+]([O-])c1ccc(N2CCN(S(=O)(=O)c3ccccc3[N+](=O)[O-])CC2)cc1N1CCc2ccccc2C1` the CPE inhibition was active: 112%.
In the case of `CC(C)C#Cc1ccc2c(c1)O[C@H](CN(C)C(=O)CC1CC1)[C@H](C)CN([C@@H](C)CO)S2(=O)=O`, the CPE inhibition is reported as inconclusive: 29.6%.
In the case of `CCCNC(=O)N(C)C[C@@H]1Oc2cc(-c3ccccc3)ccc2S(=O)(=O)N([C@H](C)CO)C[C@@H]1C`, the CPE inhibition is reported as inactive: -3.45%.
With `C[C@@H]1CCCCO[C@@H](CN(C)Cc2ccc3c(c2)OCO3)[C@H](C)CN([C@@H](C)CO)C(=O)c2cc(NC(=O)Nc3ccc(C(F)(F)F)cc3)ccc2O1` the CPE inhibition was inactive: -33%.
With `C[C@@H]1CN([C@@H](C)CO)S(=O)(=O)c2ccc(-c3ccncc3)cc2O[C@H]1CN(C)C(=O)CC1CC1` the CPE inhibition was active: 85.2%.
For `CCC(=O)N(C)C[C@H]1Oc2cc(C#CCOC)ccc2S(=O)(=O)N([C@H](C)CO)C[C@H]1C`, the CPE inhibition was active: 77.3%.
With `CCOc1ccc(N=Cc2c(O)cc(C)oc2=O)cc1` the CPE inhibition was inconclusive: 48.5%.
With `CS(=O)(=O)c1ccc(Cl)c(NC(=O)CCN2C(=O)C3CC=CCC3C2=O)c1` (stereo not given) the CPE inhibition was inactive: 3.95%.
For `O=C(CSc1nccn1Cc1ccccc1)NC1CCCC1`, the CPE inhibition was inconclusive: 44.8%.
With `COC(=O)[C@]12CCCCC=C1N(Cc1ccccc1)C(=O)[C@H](CC(=O)NCc1cccs1)C2` the CPE inhibition was inconclusive: 54.1%.
In the case of `CNC(=O)C[C@@H]1CC[C@H]2[C@@H](COc3ccc(NC(=O)c4cccs4)cc3C(=O)N2C)O1`, the CPE inhibition is reported as inconclusive: 39.1%.
